Results taken from patent US7265246B2, “Indane derivates as muscarinic receptor agonists” (Eli Lilly and Company, priority 2003, dated 2007).

System: Male Sprague-Dawley rats
Conditions: s.c. immediately after the sampling phase; tested after a three-hour delay

Compound: CN1[C@@H]2C[C@@H](OC(=O)[C@H](CO)c3ccccc3)C[C@H]1[C@@H]1O[C@@H]12 [Scopolamine, scopolamine]
- retention in the eight arm radial maze: disrupted retention after a three-hour delay in a dose-related fashion
